# “And” between values parts separate entries of the source, which are not always exact repeats. Equal entries are not always repeated. Among all 340,000 compounds or so, about 6,200 (1.8%) were called active. Inconclusive means that the source gave no clear call. Such entries were picked first, then a sample of the others. Calls follow the shape of the dose curve; as a rule, active = well fitted activation curve with a large enough effect; inconclusive = small, poorly fitted or top-dose-only effect; inactive = no such curve, though single readings can be large or run the other way. Potencies of inconclusive entries are doubtful fits and often do not repeat.
# Assay: A quantitative high throughput screen for small molecules that induce DNA re-replication in SW480 colon adenocarcinoma cells. Also: nearly all actives have a fitted effect of over 55% in size. As to re-replication activation: % of control where 0% means no effect.
# Details: Hoechst DNA content imaging, 48 h; re-replication activation: at 46.1 µM (top of the series)
# Procedure, shortened: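 Readout is total intensity of Hoechst-stained nuclei, excited at 405 nm and collected at 500-530 nm. Compound treatment lasted 48 hr at 37 C in 5% CO2 before staining.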
# Potency is read from the fitted curve at half-maximal effect.
Compound,Potency,re-replication activation
O=C(COC(=O)CNC(=O)c1ccccc1)Nc1nnc(-c2ccccc2)o1,"inconclusive: 23.1 µM [activator, partial curve, poor fit]",
COc1cccc(N2CC(C(=O)Nc3nnc(SCC(=O)c4ccccc4)s3)CC2=O)c1 (centres undefined),,inactive: -0.302%
COc1cccc(NC(=O)c2oc3ccccc3c2NC(=O)C(C)(C)C)c1,"inconclusive: 14.6 µM [activator, single point]",
CCN1C(=O)[C@H]2[C@@H](c3ccc(-c4cccc(Cl)c4)cc3)N[C@@](Cc3ccccc3)(C(=O)OC)[C@H]2C1=O,"inconclusive: 18.4 µM [activator, partial curve, poor fit]",
Cc1ccc(C(=O)CCC(=O)OCC(=O)N2CCN(S(=O)(=O)c3ccc(C)cc3C)CC2)cc1,"inconclusive: 29.1 µM [activator, single point]",
Cc1noc(/C=C/c2cccnc2)c1[N+](=O)[O-],"inconclusive: 29.1 µM [activator, single point]",
C[C@H]1CN([C@@H](C)CO)C(=O)Cc2cc(NC(=O)Nc3ccccc3)ccc2O[C@H]1CN(C)Cc1ccccc1,,inactive: -5.15%
O=[N+]([O-])c1ccc(-n2nnnc2CN2CCOCC2)cc1,"inconclusive: 20.6 µM [activator, single point]",
O=C(Nc1cccc(Cl)c1)Nc1ccnc(-c2cccnc2)n1,,inactive: 6.95%
O=C(c1ccccc1)N1CCN(C(=O)c2ccccc2)c2ccccc21,"inconclusive: 16.4 µM [activator, partial curve, poor fit]",
CC(=O)Oc1ccc(Cl)cc1/C=C/c1ccc2ccccc2n1,"inconclusive: 18.4 µM [activator, single point]",
CCS(=O)(=O)c1ccc(O)c(NC(=O)Nc2ccccc2OC)c1,,inactive: -4.9%
S=C(NCc1ccncc1)Nc1ccccc1,"inconclusive: 0.0052 µM [activator, full curve, poor fit]",
CCCNC(=O)c1ccccc1NC(=O)Nc1ccccc1C,"inconclusive: 1.03 µM [activator, full curve, poor fit]",
COc1cc2c(cc1OC)C(C(=O)N1CCN(c3ccccc3)CC1)C(c1cccs1)N(C)C2=O (centres undefined),,inactive: 0.783%
COc1cc(OC)c(C(=O)O/N=C(\N)c2ccc(C)cc2)cc1OC,"inconclusive: 32.6 µM [activator, single point]",
O=C(CSc1nc2ccccc2o1)Nc1nc2c(s1)CCCC2,"inconclusive: 1.64 µM [activator, partial curve, poor fit]",
CCN(C[C@H]1N[C@@](CC)(C(=O)OC)[C@H]2C(=O)N(Cc3ccccc3)C(=O)[C@@H]12)C(=O)c1ccc(C)cc1,"inconclusive: 6.51 µM [activator, single point]",
COc1ccc(S(=O)(=O)N2c3ccc(Cl)cc3[C@](O)(c3ccccc3Cl)[C@@H]2C(=O)N2CCC[C@H]2C(N)=O)cc1OC,,inactive: -1.25%
CCOc1ccccc1N/C(=N/c1nc(C)cc(C)n1)NC(=O)Nc1ccc(Cl)c(Cl)c1,"inconclusive: 23.1 µM [activator, partial curve, poor fit]",
COc1ccc(CCN=C(N)NS(=O)(=O)c2ccc(F)cc2)cc1,,inactive: 2.71%
Cn1c(=O)c(C(=O)COC(=O)c2cc(-c3ccco3)nc3ccccc23)c(N)n(CC2CC2)c1=O,active: 16.4 µM,
CCCCC(=O)Nc1ncc([N+](=O)[O-])s1,,inactive: -3.96%

# Taken from above.
# `COc1cc2c(cc1OC)C(C(=O)N1CCN(c3ccccc3)CC1)C(c1cccs1)N(C)C2=O` (centres undefined) – re-replication activation: inactive: 0.783%
# `O=C(CSc1nc2ccccc2o1)Nc1nc2c(s1)CCCC2` – Potency: inconclusive: 1.64 µM [activator, partial curve, poor fit]
# `O=C(c1ccccc1)N1CCN(C(=O)c2ccccc2)c2ccccc21` – Potency: inconclusive: 16.4 µM [activator, partial curve, poor fit]
# `CCN1C(=O)[C@H]2[C@@H](c3ccc(-c4cccc(Cl)c4)cc3)N[C@@](Cc3ccccc3)(C(=O)OC)[C@H]2C1=O` – Potency: inconclusive: 18.4 µM [activator, partial curve, poor fit]
# `CCCNC(=O)c1ccccc1NC(=O)Nc1ccccc1C` – Potency: inconclusive: 1.03 µM [activator, full curve, poor fit]

# (list continues)

Compound,Potency,re-replication activation
O=C(Nc1ccccc1)c1nc[nH]c1C(=O)N1CCN(c2ccccc2)CC1,,inactive: 0.402% [at 9.22 µM]
CC(=O)N1c2ccc(S(=O)(=O)N3CCC(C(=O)NCc4ccc(Cl)cc4)CC3)cc2CC1C (centres undefined),"inconclusive: 29.1 µM [activator, single point]",
O=C1C=C(N(CCO)Cc2ccccc2)c2ccccc2C1=O,active: 14.6 µM,
Cc1ccc(CNC(=O)C23CN(Cc4ccccc4)CC2C(c2cccc([N+](=O)[O-])c2)=NO3)cc1 (centres undefined),"inconclusive: 20.6 µM [activator, single point]",
CC(C)c1ccccc1OCC(=O)NC1CCCc2ccccc21 (centres undefined),"inconclusive: 18.4 µM [activator, single point]",
CSc1cccc(NC(=O)NNC(=O)C2CCN(S(=O)(=O)N(C)C)CC2)c1,,inactive: 13%
COC(=O)/C=C/C(=O)N1CCN(c2cccc(Cl)c2)CC1,"inconclusive: 29.1 µM [activator, single point]",
NC(=O)N/N=C/c1ccc([N+](=O)[O-])o1,"inactive and inconclusive: 398 nM [activator, full curve, poor fit]",
CCOc1ccc(S(=O)(=O)N2CCC(C(=O)N3CCCC3)CC2)cc1C,"inconclusive: 18.4 µM [activator, single point]",
Cc1ccccc1N1CCN(C2CCCN(C(=O)c3ccsc3)C2)CC1 (centres undefined),,inactive: 2.35%
Cc1ccc(NC(=S)NCCN(C2CCCCC2)C2CCCC2)cc1,"inconclusive: 11.6 µM [activator, single point]",
COC(=O)c1ccc(CSc2n[nH]c(-c3ccccc3)n2)o1,"inconclusive: 11.6 µM [activator, single point]",
CCOC(=O)C1(Cc2ccc(Cl)cc2)CCN(CCCn2cccn2)CC1,,inactive: 9.62%
O=C(NC(=S)NNS(=O)(=O)c1ccccc1)c1ccccc1[N+](=O)[O-],"inconclusive: 6.51 µM [activator, single point]",
CC(C)/C=C1\CC/C(=C\c2ccc(N(C)C)cc2)C1=O,"inconclusive: 2.31 µM [activator, partial curve, poor fit]",
O=C(NCc1ccc(F)cc1)C1CCN(S(=O)(=O)c2ccc(Cl)cc2)CC1,"inconclusive: 0.82 µM [activator, full curve, poor fit]",
COc1cccc(CNC(=O)CCNS(=O)(=O)c2cccc3nsnc23)c1,"inconclusive: 29.1 µM [activator, single point]",
O=C(CCSCc1ccc(Cl)cc1)NCc1ccco1,,inactive: -6.42%
O=C(CCl)Nc1cccc(CP(=O)(c2ccccc2)c2ccccc2)c1,"inconclusive: 0.651 µM [activator, full curve]",
Cc1ccc(-n2ncc3c(=O)n(CC(=O)N4CCN(c5ccccc5)CC4)cnc32)cc1,,inactive: -4.39%
Clc1cccc(-c2cc3nc4c(c(N5CCOCC5)n3n2)CCCC4)c1,,inactive: -4.37%
CCOC(=O)COc1coc(CN2CCN(c3ccc(F)cc3)CC2)cc1=O,,inactive: 2.67%
N#Cc1ccccc1OCC(=O)NNC(=O)c1ccncc1,"inconclusive: 29.1 µM [activator, single point]",

Compound,Potency,re-replication activation
COc1ccc(-c2nc(SC(CC(=O)NCc3ccccc3)c3ccc(OC)c(OC)c3)n[nH]2)cc1 (centres undefined),"inconclusive: 0.651 µM [activator, partial curve, poor fit]",
Cc1c(C)c2c(OCC(=O)NCc3cccnc3)cc3c(c2oc1=O)CCC(C)(C)O3,,inactive: 0.357%
C#CCN1C=CC(=O)[C@@H](OC(=O)Nc2ccccc2Br)[C@H]1c1ccccc1Br,"inconclusive: 0.82 µM [activator, single point]",
CC1=C(C(=O)N2CCOCC2)C(c2c(F)cccc2F)NC(=O)N1 (centres undefined),,inactive: -11.4%
OCCNCCCCOc1ccc(OCc2ccccc2)cc1,,inactive: 13.8%
O=C(c1ccccc1)N1CCN(Cc2ccccc2)CC1,,inactive: 17%
CC(=O)Cc1nsc(NC(=O)c2ccc(-c3ccccc3Cl)o2)n1,"inconclusive: 17.8 µM [activator, single point]",
COc1cccc(NC(=O)Cn2c(=O)n(CCC(=O)NCc3ccco3)c(=O)c3ccccc32)c1,,inconclusive: -24.2% [activator]
CCOC(=O)c1ccccc1NC(=O)c1cn(-c2ccc(C)c(C)c2)c(=O)c2ccccc12,"inconclusive: 1.16 µM [activator, partial curve, poor fit]",
Cc1ccc(NC(=O)n2ncc3c(C)cccc32)cc1F,,inactive: 0.118%
CCN1/C(=C2\OC(=S)N(C)C2=O)Sc2ccccc21,"inconclusive: 11.6 µM [activator, partial curve, poor fit]",
O=C(CSc1ccccc1F)NCCN1C(=O)CSC1=O,,inactive: -6.86%
CC(C)CCN(C)C1CCN(S(=O)(=O)c2cccc(C(F)(F)F)c2)CC1,"inconclusive: 32.6 µM [activator, partial curve, poor fit]",
NC(=S)NN=C1Cc2cccc3cccc1c23,,inactive: -3.79%
COc1ccc(CC2(c3ccccc3)NC(=O)NC2=O)cc1 (centres undefined),"inconclusive: 20.6 µM [activator, single point]",
COCCC1CCCCN1C(=O)c1ccc2nc(Cc3ccccc3F)oc2c1 (centres undefined),,inactive: 0.782%
CC(C)c1cc(C(=O)N/N=C/C(Br)=C/c2ccccc2)n[nH]1,"inconclusive: 0.291 µM [activator, full curve, poor fit]",
O=C(CSC1=Nc2ccccc2C2CC=NN12)NCc1ccco1 (centres undefined),"inconclusive: 18.4 µM [activator, single point]",
Cc1ccc2nc(/C(C#N)=C/c3cn[nH]c3-c3ccc(F)cc3)[nH]c2c1,"inconclusive: 29.1 µM [activator, single point]",
CC(=O)Cn1nnc2sc(-c3ccccc3)cc2c1=O,"inconclusive: 29.1 µM [activator, single point]",
O=C(NNC1=C(C(=O)C(F)(F)F)CCC1)c1cccc(Cl)c1,"inconclusive: 20.6 µM [activator, single point]",
COc1ccc(/C=N/NC(N)=S)cc1OC(=O)c1cccc2ccccc12,"inconclusive: 23.1 µM [activator, single point]",
CCN(CC(=O)Nc1c(F)cccc1F)C(=O)CNC(=O)c1ccco1,"inconclusive: 0.0046 µM [activator, full curve, poor fit]",
